# This is one part of the list. Shown are side measurements of this screen, not its main read-out; they come without a call. Compounds called inactive in the main read-out are mostly missing here. Potencies come from curve fits of mixed quality, noted in brackets.
# Assay: qHTS Assay for Lipid Storage Modulators in Drosophila S3 Cells;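 on cell number change: cells counted by Cell Tracker Red CMTPX staining in the red channel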
# Conditions: BODIPY lipid droplet fluorescence, 18-24 h; for cell number change: measured here: cell count max response, cells fed with added oleic acid
# How it was run: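 Drosophila S3 cells got compounds at several concentrations plus oleic acid (400 uM solution). Laser-scanning cytometry with 488 nm excitation read lipid droplets at 500-530 nm and cells at 575-640 nm. Percent activity was relative to 20 uM Triacsin C.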
# [1] = measured here: lipid fluorescence (Fed channel) AC50, cells fed with added oleic acid
# [2] = measured here: cell number channel AC50, cells fed with added oleic acid
SMILES,cell number change [%],AC50 [1],AC50 [2]
COc1cc(OC)cc(-c2c(-c3cccs3)c3cc(-c4ccc5[nH]ccc5c4)ccc3n2C)c1,-4.79,"0.103 µM [rising, full curve]",–
COc1ccccc1N1CCN(C(=O)COc2cc(C)cc(C)c2)CC1,35.2,"20.6 µM [rising, partial curve]","23.1 µM [rising, single point]"
O=C(NCCN1CCOCC1)/C(=C\c1ccccc1F)NC(=O)c1ccccc1,-5.6,–,"2.91 µM [falling, single point]"
Cc1cc(C(F)F)n2ncc(C(=O)N3CCc4ccccc4C3)c2n1,1.12,–,–
CC(=O)c1ccc([C@@H]2C[C@]34CN(Cc5cccc(C(F)(F)F)c5)S(=O)(=O)[C@H]3C[C@H]2O4)cc1,-1.12,"18.4 µM [rising, partial curve]",–
COc1ccccc1NCC(=O)c1ccc(Cl)cc1,–,"6.51 µM [rising, single point]",–
Cc1cccc(-n2ncc3c2CCCC3NC(=O)CCN2Cc3ccccc3C2=O)c1C (stereo not given),-25.6,–,"3.66 µM [falling, full curve, poor fit]"
CCN1CCN(c2nc(SC)nc3sc4c(c23)CC(C)(C)OC4)CC1,–,–,"4.61 µM [rising, single point]"
CC(=NCCN1CCN(C(C)=C2C(=O)c3ccccc3C2=O)CC1)C1=C(O)CC(C)(C)CC1=O,44.4,–,"29.1 µM [rising, single point]"
CNC(=O)CN(C1CCCCC1)S(=O)(=O)c1ccc(OC)c(Cl)c1,-18.2,–,"5.8 µM [falling, single point]"
CC(C)OCCCn1c(SC(C)C(=O)NCC2CCCO2)nc2cc(Cl)ccc2c1=O (stereo not given),-23.4,–,–
C/C(=N\NC(=S)NC1CCCCC1)c1ccc(Cl)c(Cl)c1,2.72,"0.13 µM [rising, full curve, poor fit]",–
Cc1ccc(S(=O)(=O)N2CCN(C(=O)c3c(-c4ccccc4)noc3C)CC2)cc1C,20.3,"2.31 µM [rising, partial curve]",–
OC(COc1cccc2ccccc12)CN1CCN(c2ccccc2)CC1 (stereo not given),-73.3,"16.4 µM [falling, partial curve]","14.6 µM [falling, partial curve]"
c1csc(-c2nc(NCC3CCCO3)c3ccccc3n2)c1 (stereo not given),15.5,"6.51 µM [rising, single point]",–
COc1ccccc1CNC(=O)CSc1ccc(Br)cc1,71,"3.66 µM [rising, full curve]","11.6 µM [rising, single point]"
COc1cc(C(=O)NNC(=O)C2CCC2)cc(OC)c1OC,8.36,"0.517 µM [rising, full curve, poor fit]",–
CC1CCC(NC(=O)CN2C(=O)C3CCCN3c3ncc(Cl)cc32)CC1 (stereo not given),218,–,–
Cc1cc(C)cc(NC(=O)N2CCC(C(=O)c3ccc(F)cc3)CC2)c1,6.95,"0.651 µM [rising, single point]",–
CC(NC(=O)COc1ccc(S(=O)(=O)N2CCCC2)cc1)c1ccccc1 (stereo not given),-1.68,"0.058 µM [falling, full curve, poor fit]",–

SMILES,cell number change [%],AC50 [1],AC50 [2]
CCNC(=S)Nc1ccc2cn[nH]c2c1,-5.14,–,–
CCOc1ccc(CCNC(=O)COC(=O)COc2cc(C)cc(C)c2)cc1OCC,-25.8,"3.26 µM [falling, full curve]","3.26 µM [falling, full curve, poor fit]"
CC1Oc2ccccc2N(CC(=O)NCC2CCCO2)C1=O (stereo not given),4.49,"0.731 µM [rising, full curve, poor fit]",–
COc1ccc(N2CCN(C(=S)Nc3cc(C)ccc3C)CC2)cc1,4.6,"5.17 µM [rising, full curve, poor fit]",–
CCOc1ccc(NC(=O)C2C(c3ccccc3)C2(Cl)Cl)cc1 (stereo not given),–,"1.3 µM [falling, full curve, poor fit]",–
Cc1c(NC(=S)NC(=O)COc2ccccc2)c(=O)n(-c2ccccc2)n1C,–,"6.51 µM [rising, partial curve, poor fit]","6.51 µM [rising, partial curve, poor fit]"
Cc1ccc(CCNC(=O)c2cc(S(=O)(=O)N3CCCCC3)c[nH]2)cc1,-34.4,–,"23.1 µM [falling, single point]"
NS(=O)(=O)c1ccc(CCNC(=O)c2cc(-c3ccc(Br)cc3)nc3ccccc23)cc1,9.23,–,–
COc1cccc(C(=O)c2c[nH]c(C(=O)NCc3cccs3)c2)c1,–,–,"3.66 µM [rising, single point]"
CN1C(=O)/C(=C\c2cccc(OCc3ccccc3)c2)SC1=S,2.78,–,–
CC1(C)CC(N=c2cc(-c3ccccc3)oc3ccc(Cl)cc23)CC(C)(C)N1,-54,"29.1 µM [falling, single point]","18.4 µM [falling, single point]"
C=CCNC(=O)CSc1nc2sc(C)c(C)c2c(=O)[nH]1,-0.354,–,–
CCc1noc(C)c1C(=O)Nc1ccc(S(=O)(=O)N2CCCC(C)C2)cc1 (stereo not given),-15.1,"0.00461 µM [falling, full curve, poor fit]",–
COc1cc(C(=O)Oc2c(CN3CCOCC3)cc(Cl)c3cccnc23)cc(OC)c1OC,14.7,"32.6 µM [falling, single point]",–
CCCN1CCN(CCCNC(=O)C2CCCN(c3nc4ccc(OCC)cc4s3)C2)CC1 (stereo not given),-155,"29.1 µM [falling, single point]","18.4 µM [falling, single point]"
O=C(OCC(=O)N1CCCC1=O)c1ccc(F)c(S(=O)(=O)N2CCOCC2)c1,-18.3,"29.1 µM [rising, single point]",–
O=c1[nH]c(C2CCN(S(=O)(=O)Cc3ccccc3)CC2)nc2c1nnn2Cc1ccccc1Cl,21.4,–,–
COc1cc(NS(=O)(=O)c2ccc(NC(=S)NC(=O)c3ccc(Br)cc3)cc2)ncn1,17.2,"0.206 µM [rising, partial curve]",–
N#CC(c1ccc(Cl)cc1)c1ccc2c(C(F)(F)F)cc(C(F)(F)F)nc2n1 (stereo not given),-78.2,"16.4 µM [falling, single point]","18.4 µM [falling, partial curve]"
CC(=O)Nc1ccc(C2(c3ccc(NC(C)=O)cc3)C(=O)Nc3ccccc32)cc1,22.1,–,"0.103 µM [falling, full curve, poor fit]"

# At a glance, some entries already given.
SMILES,cell number change [%],AC50 [1],AC50 [2]
O=C(OCC(=O)N1CCCC1=O)c1ccc(F)c(S(=O)(=O)N2CCOCC2)c1,-18.3,"29.1 µM [rising, single point]",–
O=c1[nH]c(C2CCN(S(=O)(=O)Cc3ccccc3)CC2)nc2c1nnn2Cc1ccccc1Cl,21.4,–,–
COc1cc(NS(=O)(=O)c2ccc(NC(=S)NC(=O)c3ccc(Br)cc3)cc2)ncn1,17.2,"0.206 µM [rising, partial curve]",–

# Further records follow.

SMILES,cell number change [%],AC50 [1],AC50 [2]
COc1ccc(Cn2c(=O)[nH]c3cc(OC)c(OC)cc3c2=O)cc1,43.8,"0.461 µM [rising, full curve, poor fit]","25.9 µM [rising, partial curve]"
CC(NC(=O)CN(C)CC(=O)Nc1ccc(F)c(F)c1F)c1ccccc1 (stereo not given),4.15,–,–
O=C(COC(=O)Cc1c(F)cccc1Cl)NCCC1=CCCCC1,0.445,"0.058 µM [falling, full curve, poor fit]",–
CCC(=O)NC(=S)Nc1ccc(OC)cc1OC,82.9,–,"0.116 µM [rising, full curve, poor fit]"
O=C1C=C(NNC(=O)c2ccncc2)CC(c2ccccc2)C1 (stereo not given),60.2,–,–
COc1ccc(Cl)cc1Nc1nc(-c2sc(NC(=O)CC(C)C)nc2C)cs1,-49.9,"2.59 µM [falling, full curve, poor fit]","29.1 µM [falling, single point]"
CCOC(=O)Cc1csc2nc(-c3ccccc3)nn12,–,–,"0.103 µM [rising, partial curve, poor fit]"
CCN(CC)S(=O)(=O)c1cccc(N=NC2=C(O)CCCC2=O)c1,19.1,"0.291 µM [falling, partial curve, poor fit]",–
O=[N+]([O-])c1ccc(-c2nn(-c3ccccc3)cc2/C=N/n2c(-c3ccncc3)n[nH]c2=S)cc1,-30.5,–,"5.8 µM [falling, full curve, poor fit]"
COc1ccc(NS(=O)(=O)c2ccc3nc(COc4ccc(Cl)c(C)c4)[nH]c3c2)cc1,-53.8,"14.6 µM [falling, partial curve]","14.6 µM [falling, partial curve]"
CCCCc1ccc(NC(=O)CSc2nnc(C)c(=O)n2N)cc1,-67,"29.1 µM [falling, single point]","14.6 µM [falling, partial curve]"
CC(=O)Nc1ccc(S(=O)(=O)N2CCC(C(=O)NCc3ccco3)CC2)cc1,-9.63,"29.1 µM [rising, single point]",–
Cc1cc(NC(=O)CSc2nc3cc4c(cc3c(=O)n2CCc2ccccc2)OCO4)no1,11.8,"0.326 µM [rising, partial curve, poor fit]",–
COCC(=O)N1CCC(Oc2ccc(C(=O)NC(C)c3nc(C)sc3C)cc2)CC1 (stereo not given),23.6,"0.00461 µM [rising, full curve, poor fit]",–
Cc1cc(C)n2nc(C(=O)N(C)c3c(N)n(Cc4ccccc4)c(=O)[nH]c3=O)nc2n1,–,"23.1 µM [falling, partial curve, poor fit]",–
CCn1c(=O)cc(OCC(=O)NCCc2ccc(OC)c(OC)c2)c2ccccc21,47.2,"0.651 µM [rising, full curve]",–
Nc1c(C(=O)Nc2ccccc2)nnn1-c1ccc2c(c1)OCCO2,–,"8.2 µM [rising, partial curve, poor fit]",–
CCOc1ccccc1N1CCN(Cc2ccc(OC)c(OC)c2)CC1,1.08,"0.058 µM [falling, full curve, poor fit]",–

# From PubChem BioAssay AID2685 (National Center for Advancing Translational Sciences (NCATS), 2010)
